Measured values from the supplement of paper PMC7238544.
Where a name gives a salt, the structure may show the parent alone. ± gives the standard deviation of the averaged measurements. The list shows a part of the results. The data scatter; read single values as rough.

Legend:
hAMSC donor 1 [1] = experiment: Hoechst total cell count ratio vs vehicle control; higher = more cells (less toxicity)
hAMSC donor 2 [2] = experiment: as above
hAMSC donor 1 [3] = experiment: transgenic luciferase activity (RLU/mg protein) fold change vs vehicle control (ratio); higher = more transgene expression
hAMSC donor 1 [4] = experiment: transfection efficiency (EGFP+ cells / Hoechst count) fold change vs vehicle control (ratio); higher = enhanced transfection
hAMSC donor 2 [5] = experiment: as above
hAMSC donor 2 [6] = experiment: transgenic luciferase activity (RLU/mg protein) fold change vs vehicle control (ratio); hAMSC are human adipose-derived mesenchymal stem cells given an EGFP-luciferase plasmid by lipofection; higher = more transgene expression
[7] = priming compound concentration 0.2 µM
[8] = priming compound concentration 1.7 µM
[9] = priming compound concentration 13 µM

Compound	Hoechst total cell count ratio (hAMSC donor 1 [1]; [7])	Hoechst total cell count ratio (hAMSC donor 1 [1]; [8])	Hoechst total cell count ratio (hAMSC donor 1 [1]; [9])	Hoechst total cell count ratio (hAMSC donor 2 [2]; [7])	Hoechst total cell count ratio (hAMSC donor 2 [2]; [8])	Hoechst total cell count ratio (hAMSC donor 2 [2]; [9])	transgenic luciferase activity (hAMSC donor 1 [3]; [9])	transfection efficiency (hAMSC donor 1 [4]; [7])	transfection efficiency (hAMSC donor 1 [4]; [8])	transfection efficiency (hAMSC donor 1 [4]; [9])	transfection efficiency (hAMSC donor 2 [5]; [7])	transfection efficiency (hAMSC donor 2 [5]; [8])	transfection efficiency (hAMSC donor 2 [5]; [9])	transgenic luciferase activity (hAMSC donor 1 [3]; [8])	transgenic luciferase activity (hAMSC donor 2 [6]; [8])	transgenic luciferase activity (hAMSC donor 2 [6]; [9])
CS(=O)(=O)c1ccc(C2=C(c3ccccc3)C(=O)OC2)cc1 [Rofecoxib]	1.28 ± 0.16	1.18 ± 0.087	1.15 ± 0.029	1.12 ± 0.16	0.932 ± 0.06	1.25 ± 0.21	0.959 ± 0.25	0.978 ± 0.15	1.09 ± 0.21	0.7 ± 0.32	1.15 ± 0.15	1.33 ± 0.04	0.843 ± 0.14			
CN(C)CCC=C1c2ccccc2CCc2ccccc21 [Amitriptyline hydrochloride]	1.4 ± 0.12	1.19 ± 0.097	1.47 ± 0.15	0.998 ± 0.4	0.901 ± 0.099	1.32 ± 0.18		1.35 ± 0.32	1.13 ± 0.21	1.05 ± 0.17	0.904 ± 0.4	0.926 ± 0.19	0.976 ± 0.11	0.765 ± 0.21		
CCCCc1oc2ccccc2c1C(=O)c1cc(I)c(OCCN(CC)CC)c(I)c1 [Amiodarone hydrochloride]	1.26 ± 0.053	1.2 ± 0.13	1.46 ± 0.2	0.973 ± 0.52	1.34 ± 0.12	1.55 ± 0.12	0.735 ± 0.11	1.04 ± 0.038	1.22 ± 0.21	0.592 ± 0.066	1.59 ± 0.77	1.42 ± 0.071	0.646 ± 0.11			
COc1ccnc(C[S+]([O-])c2nc3cc(OC(F)F)ccc3[nH]2)c1OC (stereo not given) [Pantoprazole sodium]	1.21 ± 0.1	1.03 ± 0.064	1.19 ± 0.14	0.977 ± 0.18	1.23 ± 0.035	1.304 ± 0.007	0.898 ± 0.13	1.15 ± 0.088	1.27 ± 0.094	0.943 ± 0.11	1.21 ± 0.17	1.08 ± 0.098	0.748 ± 0.046			
O=C1Nc2ccccc2/C1=C1/Nc2ccccc2C1=O [Indirubin]	1.66 ± 0.019	1.48 ± 0.058	1.62 ± 0.22	0.963 ± 0.066	0.968 ± 0.054	1.08 ± 0.12		1.12 ± 0.34	1.13 ± 0.27	0.732 ± 0.14	1.02 ± 0.14	1.32 ± 0.073	1.31 ± 0.17		0.599 ± 0.034	
COc1ccccc1OCC(O)CN1CCN(CC(=O)Nc2c(C)cccc2C)CC1 (stereo not given) [Ranolazine dihydrochloride]	1.58 ± 0.32	1.26 ± 0.32	1.22 ± 0.22	1.11 ± 0.11	1.19 ± 0.029	1.28 ± 0.1		1.03 ± 0.35	1.38 ± 0.21	1.25 ± 0.1	1.11 ± 0.16	1.1 ± 0.074	1.21 ± 0.16		0.376 ± 0.048	
O=C1c2cccc3c2[C@H](CCC3)CN1[C@@H]1CN2CCC1CC2 [Palonosetron hydrochloride]	1.35 ± 0.059	1.29 ± 0.31	1.3 ± 0.22	0.932 ± 0.16	1.06 ± 0.064	0.989 ± 0.13	0.708 ± 0.21	0.947 ± 0.09	1.44 ± 0.36	0.972 ± 0.12	1.04 ± 0.17	1.57 ± 0.36	0.98 ± 0.21			
Fc1ccc([C@@H]2CCNC[C@H]2COc2ccc3c(c2)OCO3)cc1 [Paroxetine maleate]	1.08 ± 0.063	1.48 ± 0.19	1.47 ± 0.044	1.01 ± 0.39	1.18 ± 0.014	1.05 ± 0.12		0.947 ± 0.11	0.733 ± 0.21	0.659 ± 0.21	1.22 ± 0.21	1.09 ± 0.084	0.831 ± 0.085			0.474 ± 0.013
C=CC1=C(C(=O)O)N2C(=O)[C@@H](NC(=O)/C(=N\O)c3csc(N)n3)[C@H]2SC1 [Cefdinir]	1.19 ± 0.19	1.09 ± 0.11	0.931 ± 0.16	1.17 ± 0.2	1.19 ± 0.085	0.891 ± 0.24	0.94 ± 0.33	1.01 ± 0.2	1.26 ± 0.059	1.23 ± 0.16	1.32 ± 0.54	1.28 ± 0.19	1.11 ± 0.14			
CCN1CCC[C@H]1CNC(=O)c1c(O)c(Cl)cc(Cl)c1OC [Raclopride]	1.15 ± 0.087	1.28 ± 0.035	1.12 ± 0.22	1.18 ± 0.24	1.1 ± 0.0043	0.931 ± 0.1		0.913 ± 0.16	0.938 ± 0.21	0.819 ± 0.41	1.04 ± 0.11	0.979 ± 0.083	1.03 ± 0.16			1.15 ± 0.23
NC1CCN(c2nc3c(cc2F)c(=O)c(C(=O)O)cn3-c2ccc(F)cc2F)C1 (stereo not given) [Tosufloxacin tosilate]	1.35 ± 0.18	1.12 ± 0.12	1.35 ± 0.31	1.24 ± 0.21	1.19 ± 0.064	1.02 ± 0.076		1.1 ± 0.17	1.21 ± 0.24	1.04 ± 0.37	0.946 ± 0.17	1.29 ± 0.098	1.01 ± 0.19			0.665 ± 0.038
CC(C)c1nc(CN(C)C(=O)N[C@H](C(=O)N[C@@H](Cc2ccccc2)C[C@H](O)[C@H](Cc2ccccc2)NC(=O)OCc2cncs2)C(C)C)cs1 [Ritonavir]	1.68 ± 0.097	1.3 ± 0.12	1.59 ± 0.039	1.45 ± 0.053	1.07 ± 0.059	1.12 ± 0.068		0.81 ± 0.1	1.38 ± 0.49	0.859 ± 0.21	0.994 ± 0.27	1.07 ± 0.23	0.981 ± 0.15			0.635 ± 0.19
COc1ccc2c3c1O[C@H]1C[C@@H](O)C=C[C@@]31CCN(C)C2 [Galanthamine hydrobromide]	1.72 ± 0.12	1.23 ± 0.21	2.05 ± 0.2	1.04 ± 0.1	0.944 ± 0.073	0.914 ± 0.08		0.761 ± 0.29	1.29 ± 0.072	0.339 ± 0.08	1.1 ± 0.3	1.356 ± 0.01	0.932 ± 0.14			0.891 ± 0.093
c1ccc(-c2ccc(C(c3ccccc3)n3ccnc3)cc2)cc1 (stereo not given) [Bifonazole]	1.07 ± 0.044	1.41 ± 0.12	1.33 ± 0.071	0.952 ± 0.14	1.12 ± 0.093	1.14 ± 0.15		0.858 ± 0.1	0.724 ± 0.12	0.875 ± 0.2	1.29 ± 0.26	0.841 ± 0.13	1.16 ± 0.12			0.612 ± 0.2
CN(C)CCC(c1ccc(Cl)cc1)c1ccccn1 (stereo not given) [Chlorpheniramine maleate]	1.07 ± 0.059	1.24 ± 0.17	1.32 ± 0.12	0.828 ± 0.23	1.05 ± 0.094	1.04 ± 0.023		1.16 ± 0.28	1.4 ± 0.15	1.19 ± 0.26	1.16 ± 0.4	1.18 ± 0.072	1.14 ± 0.2			1.03 ± 0.51

Two records drawn at random from the list so far:
Compound	Hoechst total cell count ratio (hAMSC donor 1 [1]; [7])	Hoechst total cell count ratio (hAMSC donor 1 [1]; [8])	Hoechst total cell count ratio (hAMSC donor 1 [1]; [9])	Hoechst total cell count ratio (hAMSC donor 2 [2]; [7])	Hoechst total cell count ratio (hAMSC donor 2 [2]; [8])	Hoechst total cell count ratio (hAMSC donor 2 [2]; [9])	transgenic luciferase activity (hAMSC donor 1 [3]; [9])	transfection efficiency (hAMSC donor 1 [4]; [7])	transfection efficiency (hAMSC donor 1 [4]; [8])	transfection efficiency (hAMSC donor 1 [4]; [9])	transfection efficiency (hAMSC donor 2 [5]; [7])	transfection efficiency (hAMSC donor 2 [5]; [8])	transfection efficiency (hAMSC donor 2 [5]; [9])	transgenic luciferase activity (hAMSC donor 1 [3]; [8])	transgenic luciferase activity (hAMSC donor 2 [6]; [8])	transgenic luciferase activity (hAMSC donor 2 [6]; [9])
CCCCc1oc2ccccc2c1C(=O)c1cc(I)c(OCCN(CC)CC)c(I)c1 [Amiodarone hydrochloride]	1.26 ± 0.053	1.2 ± 0.13	1.46 ± 0.2	0.973 ± 0.52	1.34 ± 0.12	1.55 ± 0.12	0.735 ± 0.11	1.04 ± 0.038	1.22 ± 0.21	0.592 ± 0.066	1.59 ± 0.77	1.42 ± 0.071	0.646 ± 0.11			
c1ccc(-c2ccc(C(c3ccccc3)n3ccnc3)cc2)cc1 (stereo not given) [Bifonazole]	1.07 ± 0.044	1.41 ± 0.12	1.33 ± 0.071	0.952 ± 0.14	1.12 ± 0.093	1.14 ± 0.15		0.858 ± 0.1	0.724 ± 0.12	0.875 ± 0.2	1.29 ± 0.26	0.841 ± 0.13	1.16 ± 0.12			0.612 ± 0.2
